Test results published in PMC10481361, “Structural insight into G-protein chaperone-mediated maturation of a bacterial adenosylcobalamin-dependent mutase” (The Journal of Biological Chemistry, 2023).
Results are given in words; binding and its absence hold for the method and conditions named. Tags and fused reporters may be left off the sequences shown.

What was measured:
[1] = target: Cupriavidus metallidurans isobutyryl-CoA mutase fused (IcmF), wild type (Cupriavidus metallidurans) (UniProt Q1LRY0); assay: condition: only with no nucleotide or with 500 μM GDP, with AdoCbl or OHCbl (dimer with dimer; 20 ng/μl IcmF); negative stain EM; 20 ng/μl wt IcmF with 500 μM AdoCbl (dark or exposed to light) or OHCbl, no nucleotide or 500 μM GDP; both purified
[2] = target: Cupriavidus metallidurans isobutyryl-CoA mutase fused (IcmF), wild type (Cupriavidus metallidurans) (UniProt Q1LRY0); assay: condition: only with no nucleotide or with 500 μM GDP (dimer with dimer; 20 ng/μl IcmF); negative stain EM; 20 ng/μl wt IcmF in 20 mM Hepes pH 8, 50 mM NaCl, no nucleotide or 500 μM GDP (30 min on ice); dimer seen, dimer with dimer not seen; both purified

binding [1]: no binding | binding [2]: no binding
B1: Cupriavidus metallidurans isobutyryl-CoA mutase fused (IcmF), wild type (enzyme, UniProt Q1LRY0 1-1093, looked up)
chain: MTDLSDVSRTAAAKPPAVPGRGPANKVRFVTAASLFDGHDASINIMRRILQSQGCEVIHLGHNRSVQEVVTAALQEDVQGIAISSYQGGHVEYFKYMIDLLREHGGEHIQVFGGGGGVIVPDEIRELQAYGVARIYSPEDGQRMGLAGMITDMAQRCDIDLTRYAPTTLDTVVAGDRRALAQLITALENGKADPELVSALHAQAKAAAVPVLGITGTGGAGKSSLTDELIRRFRLDQDDALSIAVISIDPSRRKSGGALLGDRIRMNAINHPNIFMRSLATREAGSEISQALPDVIAACKAARFDLVIVETSGIGQGDAAIVPHVDLSLYVMTPEFGAASQLEKIDMLDFADFVAINKFDRKGAQDAWRDVAKQVQRNREQWHSRAEDMPVYGTQASRFNDDGVTMLYQGLVGALGARGMSLKPGTLPNLEGRISTGQNVIVPPARSRYLAELADTVRAYHRRVVAQSKLARERQQLRAAHDMLQGAGHESAALETLASERDVSLGAVERKLLAMWPQMQQAYSGDEYVVKIRDKEIRTGLISTTLSGTKIRKVVLPRFEDEGEILKWLMRENVPGSFPYTAGVFAFKREGEDPTRMFAGEGDAFRTNRRFKLVSEGMEAKRLSTAFDSVTLYGEDPHERPDIYGKVGNSGVSIATLEDMKVLYDGFDLTNPSTSVSMTINGPAPTILAMFMNTAIDQQIDRFRADNGRDPTADEEAKIRAWVLQNVRGTVQADILKEDQGQNTCIFSTEFSLKVMGDIQEYFVHHQVRNFYSVSISGYHIAEAGANPISQLAFTLANGFTYVEAYLARGMHIDDFAPNLSFFFSNGMDPEYSVLGRVARRIWAVTMRDKYGANDRSQKLKYHIQTSGRSLHAQEIDFNDIRTTLQALIAIYDNCNSLHTNAYDEAITTPTAESVRRALAIQLIINREWGVAKCENPNQGSFLIEELTDLVEEAVLQEFERIAERGGVLGAMETGYQRGKIQEESLYYEQLKHDGTLPIIGVNTFRNPNGDPTPQTLELARSSEDEKQSQLHRLTEFHGAHQADAEAMLARLRQAVIDNRNVFAVLMDAVRVCSLGQITHALFEVGGQYRRNM
notes: Isobutyryl-CoA mutase fused (IcmF) of Cupriavidus metallidurans; Resting state is a homodimer; dimers join through their G-protein domains into higher-order oligomers; The plasmid has a thrombin cleavage site after the His-tag; no cleavage is described; also called wt IcmF; cmIcmF; source: E. coli BL21 T7 Express, purified (Ni-NTA, MonoQ, SEC)
